This note sets out measurements from publication PMC6147608.

Sequences of proteins named here, by UniProt entry; tags and fusion partners are left off. Residues count along the entry.
UniProt P42003, 26-150: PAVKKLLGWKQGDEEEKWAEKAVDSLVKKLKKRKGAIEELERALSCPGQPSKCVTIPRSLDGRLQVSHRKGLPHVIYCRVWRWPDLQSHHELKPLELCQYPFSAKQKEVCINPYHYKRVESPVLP
UniProt Q9U1K4, entry or part of it: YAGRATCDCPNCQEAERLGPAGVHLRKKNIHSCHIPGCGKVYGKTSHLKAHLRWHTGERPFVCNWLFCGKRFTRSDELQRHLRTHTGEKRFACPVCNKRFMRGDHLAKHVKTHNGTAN

The exact form of at least one protein or probe is not confirmed. At least one verdict was read from the data and is not stated in words by the source. For some assays here: Where a protein sequence is shown, tags need not be part of it.

The target in one series is T1, Distal-less (Dll) (Drosophila melanogaster) (UniProt P20009).
T1 sequence (looked up): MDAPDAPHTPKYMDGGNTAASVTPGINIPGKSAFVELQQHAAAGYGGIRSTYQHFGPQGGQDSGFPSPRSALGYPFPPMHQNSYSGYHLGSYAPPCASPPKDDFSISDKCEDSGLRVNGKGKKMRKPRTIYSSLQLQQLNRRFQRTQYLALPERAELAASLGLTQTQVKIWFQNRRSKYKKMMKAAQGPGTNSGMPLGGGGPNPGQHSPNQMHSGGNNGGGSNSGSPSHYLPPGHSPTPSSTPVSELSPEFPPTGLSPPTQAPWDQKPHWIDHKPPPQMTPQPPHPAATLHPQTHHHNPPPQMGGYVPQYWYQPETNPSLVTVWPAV
The series is described as follows: EMSA. Conditions: EMSA as previously described (ref 53); pH and temperature not given; recombinant protein; residues 1-327; protein details: His. A general note: A gel shift assay detects complexes by their altered migration in electrophoresis.
“CGAAGTCAGCTCTCAATCATAAATGAATCATGCGCACGGAGAGGTCGCCTCC (double strand) [vnE Dll site 7]”: the binding result was “binds”.

Consider “GACGCTGACGGGTTTTGTATAAACAAGTCGAAGTCAGCTCTCCGGAGAGGTCGCCTCC (double strand) [vnE Dll site 6]”, for which the binding result is “binds”.

In the case of “AACTCGCTAAATATTTCAGTTAACGCTTTGGTGGTCCGGAGAGGTCGCCTCC (double strand) [vnE Dll site 4]”, the binding result is listed as “binds”. Still for that read-out and setting: then “ATGCGCAAATTATATGGCCAAGACTGGACGGCGGACCCGGAGAGGTCGCCTCC (double strand) [vnE Dll site 8]”, with “binds”; and “CAGCTTTTGCTGGCGCTGCTTAATAAACAATCATCAGCAACAACGGAGAGGTCGCCTCC (double strand) [vnE Dll sites 9 and 10]”, with “binds”; and “TGCTGGCGGCCACGTCGGTGCCGAGGAGCTTAATTAAAGAGCGCGGAGAGGTCGCCTCC (double strand) [vnE Dll site 2]”, with “binds”. Still for that read-out and setting: then “CAGGCCGGGGTGGGATGGATAAAATGCACTTCCTGCTGGCCGGAGAGGTCGCCTCC (double strand) [vnE Dll site 1 / Sp1 site 2]”, with “binds”. Same read-out and setting: then “GGCTTCCTGGAAATCAAAGAGACAAACTCGCCGGAGAGGTCGCCTCC (double strand) [vnE Dll site 3]”, with “binds”; and “GGTCTTGGCCTATAATTTGCTGCTGTTGCTGCCGGAGAGGTCGCCTCC (double strand) [vnE Dll site 5]”, with “binds”.

The next series deals with Mad MH1 domain (Drosophila melanogaster) (UniProt P42003). The series is described as follows: EMSA. Particulars: EMSA as previously described (ref 53); pH and temperature not given; recombinant protein; protein details: His.
For the sequence “TCCTGCTGGCGGCCAGTAAAGTTATTCATTG (double strand) [vnE Mad site 4]”, the binding result is recorded as “binds”. Same read-out and setting: then “CACGTCGGTGCCGAGGTAAAGTTATTCATTG (double strand) [vnE Mad site 5]”, with “binds”.

A further series concerns the target T2, Pan HMG domain (Drosophila melanogaster) (UniProt P91943).
T2 sequence (looked up, limits assumed): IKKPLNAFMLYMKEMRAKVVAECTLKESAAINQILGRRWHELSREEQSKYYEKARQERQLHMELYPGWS
The series is described as follows: EMSA. Particulars: EMSA as previously described (ref 53); pH and temperature not given; recombinant protein; protein details: His.
As for “CCTGGAAATCAAAGAGGCGGAGAGGTCGCCTCC (double strand) [vnE Pan site 4]”, the binding result is “binds”.

The next series has as its target Sp1 zinc-finger fragment (Drosophila melanogaster) (UniProt Q9U1K4). The series is described as follows: EMSA. Conditions: EMSA as previously described (ref 53); pH and temperature not given; recombinant protein; protein details: His.
Consider “CAGGCCGGGGTGGGATGGATAAAATGCACTTCCTGCTGGCCGGAGAGGTCGCCTCC (double strand) [vnE Dll site 1 / Sp1 site 2]”, for which the binding result is “binds”. The same measure, in the same setting: then “GTGTATTTGTGGGCGGCAGGAGCAGCTACCCAGAGGTGAACGGAGAGGTCGCCTCC (double strand) [vnE Sp1 site 1 / scanning Oligo 14]”, with “binds”.
